This note sets out measurements from article PMC7819943, “Rice protein-binding microarrays: a tool to detect cis-acting elements near promoter regions in rice”.

Protein sequences, listed by entry. Tags and fused reporters are not part of them.
UniProt Q0JBA9, entry or part of it: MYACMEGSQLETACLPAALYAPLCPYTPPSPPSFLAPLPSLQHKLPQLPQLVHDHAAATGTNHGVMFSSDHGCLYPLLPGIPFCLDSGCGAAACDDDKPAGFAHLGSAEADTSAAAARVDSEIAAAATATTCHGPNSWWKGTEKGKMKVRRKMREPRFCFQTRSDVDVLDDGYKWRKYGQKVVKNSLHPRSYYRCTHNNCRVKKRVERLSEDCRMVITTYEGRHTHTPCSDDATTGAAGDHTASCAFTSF

Some of the results follow.

The target of this assay is OsWRKY34 (Oryza sativa, UniProt Q0JBA9 1-250). Briefly: protein-binding microarray (RPBM); PBS, 2% BSA, 51.3 ng/ul salmon testes DNA, 50 uM zinc acetate, 200 nM TF, 25 C, 1 h; high values mean tight binding. Conditions: protein: recombinant; tags: N-terminal polyhistidine and DsRed monomer fusion (pET32a); label: CyDye5-dUTP incorporated in the synthesized complementary strand; 3' TTTTT single-stranded linker to array surface; dsDNA, one strand shown. In a few lines: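 An Axon 4000B scanner gave the binding signal as per-feature fluorescence intensity in arbitrary units. This followed washing of a custom Agilent array that had been incubated for 1 h at 25 °C with 200 nM protein in PBS, 2% BSA, salmon testes DNA and 50 µM zinc acetate. The proteins were transcription factors fused at the N-terminus to polyhistidine and DsRed, expressed in E. coli BL21-CodonPlus and purified on Ni–NTA.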
Take “GCTGATTAATTTCACTCCATGTACTACTGCCGATTTGTTCCGGAGTCACCTAGTGCAG”: the binding signal is 9700 fluorescence intensity (a.u.).

Take “ACCAACACCGCGCCCTTCCACTGTACCACCCGTGCTCTCCCGGAGTCACCTAGTGCAG”: the binding signal was 10700 fluorescence intensity (a.u.).

Regarding “TCGCCGCCGACACTCGCCAAGTTTGATCACTTCTAACCGCCGGAGTCACCTAGTGCAG”, the binding signal is 8120 fluorescence intensity (a.u.).

Turning to “CGGCCCTTCTCGAGGCACTTCTGCGGGTTGGGGTCCTTCTCGGAGTCACCTAGTGCAG”, the binding signal is 15400 fluorescence intensity (a.u.).

“TTTTGGTAATTCGCTTCGCAGTGCTCTCTTCTCCTAGAATCGGAGTCACCTAGTGCAG”: the binding signal is 8460 fluorescence intensity (a.u.).

As to “ATTAACTTTGCTATGTCAGTGAAACTAATCACCTATACTACGGAGTCACCTAGTGCAG”, the binding signal is 8630 fluorescence intensity (a.u.).

“TAACCACCTTGTGTTTGATGACTGCTTCTATCATCATTATCGGAGTCACCTAGTGCAG”: the binding signal was 8160 fluorescence intensity (a.u.).

Regarding “TTTCTCGACGTCCTCTGCCTCGTTTTCTTTGCCGATGATGCGGAGTCACCTAGTGCAG”, the binding signal is 9210 fluorescence intensity (a.u.).

“GGCCAGGGTTCTTCATCACCCATCCAACGGTGACAATCCCCGGAGTCACCTAGTGCAG”: the binding signal was 11800 fluorescence intensity (a.u.).

As for “TGGACACGCGTCGGGCGCTCATTGGCTGGGGTGGGGCATTCGGAGTCACCTAGTGCAG”, the binding signal is 15600 fluorescence intensity (a.u.).

As to “CCGTTTGGTGGTGGTGGTGGTCGTCGTCGCCTGATTCCGCCGGAGTCACCTAGTGCAG”, the binding signal is 8930 fluorescence intensity (a.u.).

With “CTGTTCTTACTTGATGCTTGTGTTTTCTTCATTTCTTGCACGGAGTCACCTAGTGCAG”, the binding signal is 13700 fluorescence intensity (a.u.).

With “TCTACTACTCCACTACACGCAAATTTTGGATTAACTGAGACGGAGTCACCTAGTGCAG”, the binding signal is 8160 fluorescence intensity (a.u.).

Take “TACATACGTACACTGTACCGCATCGCTACGCACGGCATGCCGGAGTCACCTAGTGCAG”: the binding signal is 8340 fluorescence intensity (a.u.).

“TGCTCAGTGGTTCCTGCAGTCATGTGCTGCTTCAGGCTTTCGGAGTCACCTAGTGCAG”: the binding signal was 9980 fluorescence intensity (a.u.).

As for “ACTCACTCTCTCCTGATCTTACTCTGCTACCGCTATTCCCCGGAGTCACCTAGTGCAG”, the binding signal is 8960 fluorescence intensity (a.u.).

Turning to “TCTATACACATTCTCCGTTTTCTAATGTGTGACGTTAATTCGGAGTCACCTAGTGCAG”, the binding signal was 9720 fluorescence intensity (a.u.).

“GCCATCCAATCAGTACAGTTGCGTCAAGCATTCAACTTCTCGGAGTCACCTAGTGCAG”: the binding signal is 11900 fluorescence intensity (a.u.).

“ATCTTTTATAGCATTCATGTCACTGCGTGTGGACCCATGACGGAGTCACCTAGTGCAG”: the binding signal is 8280 fluorescence intensity (a.u.).

“TTTCTTAATCTACTCCATGCTGACTGGCTCCTAGGTTCAACGGAGTCACCTAGTGCAG”: the binding signal was 8620 fluorescence intensity (a.u.).

With “TATACCACGATTATACTGTATTTATATCTGAAAAATTTTTCGGAGTCACCTAGTGCAG”, the binding signal was 8690 fluorescence intensity (a.u.).

For “CCAGGAGGTTTTGACTTCAGTTATTCTTGTTAATTAGTTTCGGAGTCACCTAGTGCAG”, the binding signal is 8250 fluorescence intensity (a.u.).

Turning to “ACGCTATCCTCCCGGGGCAATATTCGGCTTTCGCGTCGCTCGGAGTCACCTAGTGCAG”, the binding signal was 9680 fluorescence intensity (a.u.).

On to “TGTCTCGGTCTCGCCGGCGTGCTGCGCGCATGATGTGCTCCGGAGTCACCTAGTGCAG”, for which the binding signal was 9790 fluorescence intensity (a.u.).

In the case of “TAGCGGTGGAGTTGCTTGGGGAGGTGGGCTAGCGCGTGATCGGAGTCACCTAGTGCAG”, the binding signal was 10900 fluorescence intensity (a.u.).

In the case of “GTCTTCTTGCAACTGGATAGTGTTCATCAGTTCATGAGTTCGGAGTCACCTAGTGCAG”, the binding signal was 9440 fluorescence intensity (a.u.).

As for “GCGCGCCTCACCTTTGCCGACGATAGCAACCGGATCGACTCGGAGTCACCTAGTGCAG”, the binding signal is 8510 fluorescence intensity (a.u.).

For “CTTGCTTGCTTACGTCTCTCTCGCACACTCCCACTATTCTCGGAGTCACCTAGTGCAG”, the binding signal was 10900 fluorescence intensity (a.u.).

On to “CCCCACTCGGCTCTTATTCTTCTTCCTCATCCCGTCGCGGCGGAGTCACCTAGTGCAG”, for which the binding signal is 8610 fluorescence intensity (a.u.).

For the sequence “AATCTAACATGGATTTGCGCACACACTTGTCGTAACGTACCGGAGTCACCTAGTGCAG”, the binding signal is 9480 fluorescence intensity (a.u.).

As for “TCCCTCCTCATCTCATTCATTACTCACTCTTTTACTCTTCCGGAGTCACCTAGTGCAG”, the binding signal was 8920 fluorescence intensity (a.u.).

With “ATATTTTTTTTGTCATTTACATGTCACTTAAATAGCTATACGGAGTCACCTAGTGCAG”, the binding signal is 10200 fluorescence intensity (a.u.).

As to “GACGCTTCCGCCTCTAGCTCTCGATCGATCGATCCCACCACGGAGTCACCTAGTGCAG”, the binding signal was 10300 fluorescence intensity (a.u.).

For the sequence “GCTTATCTTTGCTTGTGGGTCGTTGTCGCCGTCTTTGGTTCGGAGTCACCTAGTGCAG”, the binding signal was 8620 fluorescence intensity (a.u.).

On to “CCCATCCACTCAGGAGCTTCTCTCATTCCTCATGGCCTCTCGGAGTCACCTAGTGCAG”, for which the binding signal is 8210 fluorescence intensity (a.u.).

With “TGCGTTTATTTATACCGTTGTCCTCGCGTACTGTTTTATTCGGAGTCACCTAGTGCAG”, the binding signal is 19400 fluorescence intensity (a.u.).

Consider “CTACTTGCCTCTGCTGCACAAGCTTTGTTGTTTCTTGCACCGGAGTCACCTAGTGCAG”, for which the binding signal is 10300 fluorescence intensity (a.u.).

With “CATAGCTTTTGGCCTTCTGTGCTTCATCCACCCATTCTGCCGGAGTCACCTAGTGCAG”, the binding signal is 10500 fluorescence intensity (a.u.).

Turning to “CTCCTCACCTGCTCAACTTCTGCGCTTTCTGAGCGCGATCCGGAGTCACCTAGTGCAG”, the binding signal was 8920 fluorescence intensity (a.u.).

As to “AAGTTGGGCGTTGTTCGTTATCCACAGTGGATTTTCTTTTCGGAGTCACCTAGTGCAG”, the binding signal was 12800 fluorescence intensity (a.u.).

With “CCTTCTTTCTTCTTCAGTCTCCCTACTCTTTATTTTCTCTCGGAGTCACCTAGTGCAG”, the binding signal was 9660 fluorescence intensity (a.u.).

Take “ACCTCTGCTGATTCTTCTTGCTGTTTCTTTGTTGCGCATTCGGAGTCACCTAGTGCAG”: the binding signal is 11500 fluorescence intensity (a.u.).
